In assay [1] the target is TrkA. Put plainly: pull-down with biotinylated peptide, Western blot. A general note: A western blot detects proteins with antibodies after separation by electrophoresis.
The target of assay [2] is TrkA. Put plainly: pull-down with biotinylated peptide from transfected HEK293 lysate, Western blot.
In the next assay the target is EGF receptor. The description is as above.

These are yes or no findings as the source states them, for the method shown. Binding seen in cells or lysates may run through a third protein. For part of these data: Binding can be weak; no strength is given.

In the case of KRWNSCKQNKQGANSRPVNQTPPPEGEKL (amino terminus labelled with biotin via a six-carbon spacer) [biotinylated c29 peptide], the binding result with TrkA [1] is listed as “binds”; with TrkA [2], “binds”; with EGF receptor it was “no binding”.
